Experimental data published in patent US20150231240A1, “ANTI-C16ORF54 ANTIBODIES AND METHODS OF USE THEREOF” (priority 2012, published 2015).

Test system: C16orf54
Experiment: Surface tagged antigen profiling (sTAg) with LC-MS/MS of primary tumor and normal samples
Parameters: species or system human
[1] = CRC, NAT (normal adjacent tissue)
[2] = Lung, NAT (normal adjacent tissue)
[3] = Ovary, NAT (normal adjacent tissue)
[4] = Pancreas, NAT (normal adjacent tissue)

B1: C16orf54 (protein)
chain: MPLTPEPPSGRVEGPPAWEAAPWPSLPCGPCIPIMLVLATLAALFILTTAVLAERLFRRALRPDPSHRAPTLVWRPGGELWIEPMGTARERSEDWYGSAVPLLTDRAPEPPTQVGTLEARATAPPAPSAPNSAPSNLGPQTVLEVPARSTFWGPQPWEGRPPATGLVSWAEPEQRPEASVQFGSPQARRQRPGSPDPEWGLQPRVTLEQISAFWKREGRTSVGF
Expression by sTAg (Median % NSAF) (AML, BMMC): 0.000 % NSAF | Prevalence (AML, BMMC): 0/16 | Expression by sTAg (Median % NSAF) (AML, Tumor): 0.084 % NSAF | Prevalence (AML, Tumor): 4/14 | Expression by sTAg (Median % NSAF) (CLL, PBMC): 0.022 % NSAF | Prevalence (CLL, PBMC): 0/15 | Expression by sTAg (Median % NSAF) (CLL, Tumor): 0.272 % NSAF | Prevalence (CLL, Tumor): 36/40 | Expression by sTAg (Median % NSAF) [1]: 0.000 % NSAF | Prevalence [1]: 0/22 | Expression by sTAg (Median % NSAF) (CRC, Tumor): 0.000 % NSAF | Prevalence (CRC, Tumor): 0/27 | Expression by sTAg (Median % NSAF) [2]: 0.000 % NSAF | Prevalence [2]: 0/75 | Expression by sTAg (Median % NSAF) (Lung, Tumor): 0.000 % NSAF | Prevalence (Lung, Tumor): 0/89 | Expression by sTAg (Median % NSAF) (MM, BMMC): 0.000 % NSAF | Prevalence (MM, BMMC): 0/16 | Expression by sTAg (Median % NSAF) (MM, Tumor): 0.110 % NSAF | Prevalence (MM, Tumor): 1/30 | Expression by sTAg (Median % NSAF) [3]: 0.000 % NSAF | Prevalence [3]: 0/10 | Expression by sTAg (Median % NSAF) (Ovary, Tumor): 0.000 % NSAF | Prevalence (Ovary, Tumor): 0/53 | Expression by sTAg (Median % NSAF) [4]: 0.000 % NSAF | Prevalence [4]: 0/21 | Expression by sTAg (Median % NSAF) (Pancreas, Tumor): 0.000 % NSAF | Prevalence (Pancreas, Tumor): 0/41 | Expression by sTAg (Median % NSAF) (Sarcoma, NAT (normal adjacent tissue)): 0.000 % NSAF | Expression by sTAg (Median % NSAF) (Sarcoma, Tumor): 0.000 % NSAF | Prevalence (Sarcoma, Tumor): 0/14
